Source: patent US20070249620A1, “Urea Derivative” (priority 2004, published 2007)
Some results were stated once for a whole list of compounds, not compound by compound. For at least one compound, name, drawing or mass did not settle the structure.

What follows are molecules tested against T1, mouse DGAT1 (Mus musculus, UniProt Q9Z2A7) (assay: DGAT1 inhibitory effect test (microsome fraction, [14C]-oleoyl-CoA, triglyceride radioactivity by TLC)). Conditions: concentration of the test compound 0.1 μg/ml; mouse DGAT1 microsomes, 23° C., 30 minutes.
T1 construct: made in house; host or cells: insect cells (High Five, Sf9, Sf21, etc.), baculovirus expression system (Invitrogen)
T1 sequence (Q9Z2A7 1-498): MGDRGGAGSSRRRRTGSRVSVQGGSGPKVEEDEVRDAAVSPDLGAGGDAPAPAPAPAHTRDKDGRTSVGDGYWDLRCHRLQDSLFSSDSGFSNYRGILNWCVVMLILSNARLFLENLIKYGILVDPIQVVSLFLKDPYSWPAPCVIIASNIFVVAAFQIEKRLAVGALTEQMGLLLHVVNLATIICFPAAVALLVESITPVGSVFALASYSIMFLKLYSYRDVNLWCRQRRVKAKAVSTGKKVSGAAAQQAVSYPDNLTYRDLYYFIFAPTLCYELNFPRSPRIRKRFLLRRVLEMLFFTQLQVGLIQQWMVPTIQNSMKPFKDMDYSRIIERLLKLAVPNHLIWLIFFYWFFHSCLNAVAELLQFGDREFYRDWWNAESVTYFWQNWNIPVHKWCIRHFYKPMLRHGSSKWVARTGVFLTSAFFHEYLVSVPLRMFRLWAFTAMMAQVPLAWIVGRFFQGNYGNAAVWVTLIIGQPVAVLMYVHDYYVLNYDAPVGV
Format: biochemical
Experimental: The cDNA which encodes mouse DGAT1 was cloned from a mouse cDNA library by polymerase chain reaction (hereinafter referred to as “PCR”) and introduced into an insect cell virus vector (baculovirus expression system, Invitrogen). After insect cells (High Five, Sf9, Sf21, etc., Invitrogen) were infected with the virus, the cells were collected in buffer A [0.1M sucrose, 50 mM KCl, 40 mM potassium phosphate (pH 7.4), 30 mM EDTA, 1% Protease inhibitor cocktail (SIGMA, P-8340)] and crushed with a Polytron homogenizer. The supernatant obtained by subjecting the homogenate to low speed centrifugal processing (10,000 ×g, 30 minutes) was further subjected to higher-speed centrifugal processing (100,000 ×g, 60 minutes) and the precipitate was resuspended in buffer A as the microsome fraction and used as DGAT1 enzyme. The DGAT1 enzyme was divided into small volumes and stored at −80° C.
(2) DGAT1 Inhibitory Effect Test
The reaction liquid of the following composition [175 mM Tris-HCl (pH 8.0), 8 mM MgCl2, 1 mg/ml BSA, 0.5 mM 1,2-dioleoyl-sn-glycerol (EtOH solution of 10-fold concentration, 10% added), 30 μM[14C]-oleoyl-CoA (about 50 mCi/mmol), 0.5% triton X-100, DGAT1 enzyme (10 μg) obtained in Test Example 1(1), test compound or vehicle (DMSO/MeOH, 7:3 solution, 5% added), total volume 50 μl] was incubated at room temperature (23° C.) for 30 minutes. A reaction terminating solution (70 μl) consisting of isopropanol/1-heptane/water (80:20:2, v/v/v) was added to the reaction solution and stirred, and subsequently stirred with water (30 μl) and 1-heptane (100 μl). The 1-heptane layer (50 μl) was spotted onto a TLC plate and developed with a developing solvent consisting of 1-hexane/diethyl ether/acetic acid (85:15:1, v/v/v). Radioactivity of triglyceride fraction was quantified by BAS2000 bio image analyzer (Fuji Film) and the inhibitory effect of the test compounds was calculated by the following formula through comparison with control. Here, radioactivity at no reaction (0 minutes incubation) was assumed as background. Inhibitory ratio=100−[(Radioactivity when test compound was added)−(Background)]/[(Radioactivity by control)−(Background)]×100

Compound	Inhibitory ratio [%]
Cc1cccnc1NC(=O)N1CCN(c2ccc(NC(=O)Nc3nc(C(C)(C)C)cs3)cc2)CC1 [Example 319, 4-{4-[3-(4-tert-butyl-thiazol-2-yl)-ureido]-phenyl}-piperazine-1-carboxylic acid(3-methyl-pyridin-2-yl)-amide]	≥ 50
Cc1cccnc1NC(=O)N1CCN(c2ccc(NC(=O)Nc3nc(C(C)(C)C)cs3)cn2)CC1 [Example 320, 4-{5-[3-(4-tert-butyl-thiazol-2-yl)-ureido]-pyridin-2-yl}-piperazine-1-carboxylic acid(3-methyl-pyridin-2-yl)-amide]	≥ 50
CCOc1cccc(NC(=O)Nc2ccc(N3CCN(C(=O)Nc4ncccc4C)CC3)nc2)c1 [Example 321, 4-{5-[3-(3-ethoxy-phenyl)-ureido]-pyridin-2-yl}-piperazine-1-carboxylic acid(3-methyl-pyridin-2-yl)-amide]	≥ 50
COc1ccccc1NC(=O)Nc1ccc(N2CCN(C(=O)Nc3ncccc3C)CC2)c(Cl)c1 [Example 322, 4-{2-chloro-4-[3-(2-methoxy-phenyl)-ureido]-phenyl}-piperazine-1-carboxylic acid(3-methyl-pyridin-2-yl)-amide]	≥ 50
Cc1cccnc1NC(=O)N1CCN(c2ccc(NC(=O)Nc3ccccc3F)cc2Cl)CC1 [Example 323, 4-{2-chloro-4-[3-(2-fluoro-phenyl)-ureido]-phenyl}-piperazine-1-carboxylic acid(3-methyl-pyridin-2-yl)-amide]	≥ 50
COc1ccc(C)cc1NC(=O)Nc1ccc(C2CCN(C(=O)Nc3ncccc3C)CC2)cc1 [Example 325, 4-{4-[3-(2-methoxy-5-methyl-phenyl)-ureido]-phenyl}-piperidine-1-carboxylic acid(3-methyl-pyridin-2-yl)-amide]	≥ 50
COc1ccccc1NC(=O)Nc1ccc(C2CCN(C(=O)Nc3ncccc3C)CC2)cc1 [Example 329, 4-{4-[3-(2-methoxy-phenyl)-ureido]-phenyl}-piperidine-1-carboxylic acid(3-methyl-pyridin-2-yl)-amide]	≥ 50
COc1cc(NC(=O)Nc2ccc(C3CCN(C(=O)Nc4ncccc4C)CC3)cc2)cc(OC)c1 [Example 330, 4-{4-[3-(3,5-dimethoxy-phenyl)-ureido]-phenyl}-piperidine-1-carboxylic acid(3-methyl-pyridin-2-yl)-amide]	≥ 50
Cc1cccnc1NC(=O)N1CCC(c2ccc(NC(=O)Nc3ccccc3F)cc2)CC1 [Example 332, 4-{4-[3-(2-fluoro-phenyl)-ureido]-phenyl}-piperidine-1-carboxylic acid(3-methyl-pyridin-2-yl)-amide]	≥ 50
CSc1ccccc1NC(=O)Nc1ccc(N2CCN(C(=O)Nc3ncccc3C)CC2)cc1 [Example 333, 4-{4-[3-(2-methylsulfanyl-phenyl)-ureido]-phenyl}-piperazine-1-carboxylic acid(3-methyl-pyridin-2-yl)-amide]	≥ 50
COc1cccc(NC(=O)Nc2ccc(N3CCN(C(=O)Nc4ncccc4C)CC3)cc2)c1OC [Example 334, 4-{4-[3-(2,3-dimethoxy-phenyl)-ureido]-phenyl}-piperazine-1-carboxylic acid(3-methyl-pyridin-2-yl)-amide]	≥ 50
CCOc1ccc(F)cc1NC(=O)Nc1ccc(N2CCN(C(=O)Nc3ncccc3C(F)(F)F)CC2)nc1 [Example 335, 4-{5-[3-(2-ethoxy-5-fluoro-phenyl)-ureido]-pyridin-2-yl}-piperazine-1-carboxylic acid(3-trifluoromethyl-pyridin-2-yl)-amide]	≥ 50
COc1ccc(C)cc1NC(=O)Nc1ccc(N2CCN(C(=O)Nc3ncccc3Cl)CC2)cc1 [Example 336, 4-{4-[3-(2-methoxy-5-methyl-phenyl)-ureido]-phenyl}-piperazine-1-carboxylic acid(3-chloro-pyridin-2-yl)-amide]	≥ 50
COc1ccc(C)cc1NC(=O)Nc1ccc(N2CCN(C(=O)Nc3ncccc3F)CC2)cc1 [Example 337, 4-{4-[3-(2-methoxy-5-methyl-phenyl)-ureido]-phenyl}-piperazine-1-carboxylic acid(3-fluoro-pyridin-2-yl)-amide]	≥ 50
COc1ccc(C)cc1NC(=O)Nc1ccc(N2CCN(C(=O)Nc3ncc(F)cc3F)CC2)cc1 [Example 338, 4-{4-[3-(2-methoxy-5-methyl-phenyl)-ureido]-phenyl}-piperazine-1-carboxylic acid(3,5-difluoro-pyridin-2-yl)-amide]	≥ 50
CCOc1ccccc1NC(=O)Nc1ccc(N2CCN(C(=O)Nc3ncc(F)cc3F)CC2)cc1 [Example 339, 4-{4-[3-(2-ethoxy-phenyl)-ureido]-phenyl}-piperazine-1-carboxylic acid(3,5-difluoro-pyridin-2-yl)-amide]	≥ 50
CCOc1cccc(NC(=O)Nc2ccc(N3CCN(C(=O)Nc4ncc(F)cc4F)CC3)cc2)c1 [Example 340, 4-{4-[3-(3-ethoxy-phenyl)-ureido]-phenyl}-piperazine-1-carboxylic acid(3,5-difluoro-pyridin-2-yl)-amide]	≥ 50
CCOc1ccc(F)cc1NC(=O)Nc1ccc(N2CCN(C(=O)Nc3ncc(F)cc3F)CC2)nc1 [Example 342, 4-{5-[3-(2-ethoxy-5-fluoro-phenyl)-ureido]-pyridin-2-yl}-piperazine-1-carboxylic acid(3,5-difluoro-pyridin-2-yl)-amide]	≥ 50
O=C(Nc1ccc(N2CCN(C(=O)Nc3ncc(F)cc3F)CC2)cc1)Nc1ccccc1OC(F)(F)F [Example 343, 4-{4-[3-(2-trifluoromethoxy-phenyl)-ureido]-phenyl}-piperazine-1-carboxylic acid(3,5-difluoro-pyridin-2-yl)-amide]	≥ 50
O=C(Nc1ccc(N2CCN(C(=O)Nc3ncc(F)cc3F)CC2)cc1)Nc1ccccc1OC(F)F [Example 344, 4-{4-[3-(2-difluoromethoxy-phenyl)-ureido]-phenyl}-piperazine-1-carboxylic acid(3,5-difluoro-pyridin-2-yl)-amide]	≥ 50
CSc1ccccc1NC(=O)Nc1ccc(N2CCN(C(=O)Nc3ncc(F)cc3F)CC2)cc1 [Example 345, 4-{4-[3-(2-methylsulfanyl-phenyl)-ureido]-phenyl}-piperazine-1-carboxylic acid(3,5-difluoro-pyridin-2-yl)-amide]	≥ 50
O=C(Nc1ccc(N2CCN(C(=O)Nc3ncc(F)cc3F)CC2)cc1)Nc1cccc2c1OCCO2 [Example 346, 4-{4-[3-(2,3-dihydro-1,4-benzodioxin-5-yl)-ureido]-phenyl}-piperazine-1-carboxylic acid(3,5-difluoro-pyridin-2-yl)-amide]	≥ 50
COc1cccc(NC(=O)Nc2ccc(N3CCN(C(=O)Nc4ncc(F)cc4F)CC3)cc2)c1OC [Example 347, 4-{4-[3-(2,3-dimethoxy-phenyl)-ureido]-phenyl}-piperazine-1-carboxylic acid(3,5-difluoro-pyridin-2-yl)-amide]	≥ 50
COc1ccc(C)cc1NC(=O)Nc1ccc(C2CCN(C(=O)Nc3ncc(F)cc3F)CC2)cc1 [Example 352, 4-{4-[3-(2-methoxy-5-methyl-phenyl)-ureido]-phenyl}-piperidine-1-carboxylic acid(3,5-difluoro-pyridin-2-yl)-amide]	≥ 50
COc1ccccc1NC(=O)Nc1ccc(C2CCN(C(=O)Nc3ncc(F)cc3F)CC2)cc1 [Example 353, 4-{4-[3-(2-methoxy-phenyl)-ureido]-phenyl}-piperidine-1-carboxylic acid(3,5-difluoro-pyridin-2-yl)-amide]	≥ 50
